Data published in PMC5688218.
These are yes or no findings as the source states them, for the method shown. Binding can be weak; no strength is given.

By UniProt entry, the sequences of proteins in these tests, tags left out. Where a name states a change or a piece, a line headed by the entry shows the natural chain unless it says otherwise. Residues count along the entry.
UniProt Q96EQ9: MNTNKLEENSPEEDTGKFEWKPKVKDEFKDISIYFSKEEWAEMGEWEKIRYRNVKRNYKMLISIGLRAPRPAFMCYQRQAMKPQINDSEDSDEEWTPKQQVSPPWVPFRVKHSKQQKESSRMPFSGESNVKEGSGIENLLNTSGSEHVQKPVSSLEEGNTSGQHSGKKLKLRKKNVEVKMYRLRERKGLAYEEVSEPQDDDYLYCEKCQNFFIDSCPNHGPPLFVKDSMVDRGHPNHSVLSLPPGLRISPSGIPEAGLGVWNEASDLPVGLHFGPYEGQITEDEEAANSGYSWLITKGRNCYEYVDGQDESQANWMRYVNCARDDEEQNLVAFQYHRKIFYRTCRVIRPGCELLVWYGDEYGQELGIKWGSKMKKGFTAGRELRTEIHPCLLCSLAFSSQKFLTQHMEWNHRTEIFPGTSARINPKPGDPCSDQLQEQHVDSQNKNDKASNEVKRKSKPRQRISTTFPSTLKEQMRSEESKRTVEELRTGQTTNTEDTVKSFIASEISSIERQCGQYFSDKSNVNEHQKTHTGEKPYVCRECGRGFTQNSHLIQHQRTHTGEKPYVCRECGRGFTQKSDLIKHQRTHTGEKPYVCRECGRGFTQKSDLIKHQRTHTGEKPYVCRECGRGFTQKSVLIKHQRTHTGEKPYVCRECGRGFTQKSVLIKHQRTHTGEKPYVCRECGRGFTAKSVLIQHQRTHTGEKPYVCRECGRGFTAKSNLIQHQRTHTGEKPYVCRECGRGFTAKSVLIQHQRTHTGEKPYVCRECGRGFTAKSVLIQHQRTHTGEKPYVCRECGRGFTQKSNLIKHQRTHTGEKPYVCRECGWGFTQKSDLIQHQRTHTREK
UniProt Q9QWF0, residues 397-911: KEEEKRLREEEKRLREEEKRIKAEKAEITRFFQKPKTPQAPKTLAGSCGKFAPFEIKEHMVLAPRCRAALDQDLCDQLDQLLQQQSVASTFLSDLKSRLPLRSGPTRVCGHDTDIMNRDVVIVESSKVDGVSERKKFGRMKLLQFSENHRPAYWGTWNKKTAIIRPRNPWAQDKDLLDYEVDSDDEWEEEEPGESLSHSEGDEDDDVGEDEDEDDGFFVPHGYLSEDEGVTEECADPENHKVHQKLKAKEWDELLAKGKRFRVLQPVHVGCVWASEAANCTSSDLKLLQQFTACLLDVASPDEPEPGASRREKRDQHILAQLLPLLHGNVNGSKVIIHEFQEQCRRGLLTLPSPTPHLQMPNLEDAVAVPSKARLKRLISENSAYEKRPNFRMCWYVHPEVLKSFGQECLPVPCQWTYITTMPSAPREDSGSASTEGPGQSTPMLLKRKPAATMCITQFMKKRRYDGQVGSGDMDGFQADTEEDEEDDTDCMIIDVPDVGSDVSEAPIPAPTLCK
UniProt Q99L90: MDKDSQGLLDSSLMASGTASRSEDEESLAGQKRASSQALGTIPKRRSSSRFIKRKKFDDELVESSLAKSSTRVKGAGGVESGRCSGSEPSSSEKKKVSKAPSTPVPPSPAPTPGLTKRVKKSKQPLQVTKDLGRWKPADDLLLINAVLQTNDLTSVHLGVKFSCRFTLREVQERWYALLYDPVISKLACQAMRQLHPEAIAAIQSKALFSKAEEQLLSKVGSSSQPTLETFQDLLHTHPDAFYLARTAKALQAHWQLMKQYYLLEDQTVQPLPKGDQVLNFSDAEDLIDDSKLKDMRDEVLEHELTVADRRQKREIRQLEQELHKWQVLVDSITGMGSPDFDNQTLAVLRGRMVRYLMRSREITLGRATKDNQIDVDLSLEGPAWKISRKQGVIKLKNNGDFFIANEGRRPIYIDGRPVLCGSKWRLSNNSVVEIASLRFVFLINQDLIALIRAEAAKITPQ
UniProt Q9CQJ2, residues 42-290: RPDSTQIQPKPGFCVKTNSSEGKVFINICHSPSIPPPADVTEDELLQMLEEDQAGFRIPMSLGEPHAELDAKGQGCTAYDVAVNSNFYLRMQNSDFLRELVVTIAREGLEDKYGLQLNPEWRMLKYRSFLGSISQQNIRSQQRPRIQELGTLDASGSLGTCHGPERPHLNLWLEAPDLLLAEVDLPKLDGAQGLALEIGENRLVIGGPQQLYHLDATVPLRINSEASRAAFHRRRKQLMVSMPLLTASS

Target: KRAB domain of mouse PRDM9 (Gal4 BD-PRDM9 KRAB) (mouse) (UniProt Q96EQ9)
Experiment: two-hybrid; Gal4 AD fusions (Y187) mated with Gal4 BD fusions (AH109); growth of diploids on −LWH and −LWHAd after 3 days at 30 °C, by streaking or spotting; 5 mM 3-AT added to −LWH for self-activating constructs

binding	Substance
binds	mouse CHAF1A 397–911 (Gal4 AD fusion) (from UniProt Q9QWF0 397-911) (domain or fragment)
binds	mouse MCRS1, full length (Gal4 AD fusion) (from UniProt Q99L90 1-462)
binds	mouse PIH1D1 42–290 (Gal4 AD fusion) (from UniProt Q9CQJ2 42-290) (domain or fragment)
